Experimental data reported in patent US11225470B2, “Tetrazolinone compounds and its use as pest control agents” (SUMITOMO CHEMICAL COMPANY, LIMITED, priority 2016, dated 2022).
Where two headings read alike, the source gives them in different places. Some entries share one result that the patent states for a list of compounds.

Tested on: rice blast fungi (Magnaporthe grisea)
Type: in vivo
Details: rice cv HINOHIKARI, contact with infected seedlings for 6 days

SMILES | lesion area compared to the lesion area in an untreated rice (200 ppm foliar spray) | lesion area compared to the lesion area in an untreated rice (500 ppm foliar spray)
CCC(=NN=C1CCOc2c(F)cc(F)cc21)OCc1c(C)cccc1-n1nnn(C)c1=O [E-23] | ≤ 30% | ≤ 30%
CCC(=NN=C(C)C(C)=NOCc1ccc(OC)cc1)OCc1c(C)cccc1-n1nnn(C)c1=O [C-12] | ≤ 30% | –
CCC(=NN=C1CCc2cccc(OC)c21)OCc1c(C)cccc1-n1nnn(C)c1=O [E-9] | ≤ 30% | –
CC=CCON=C(C)C(C)=NN=C(CC)OCc1c(C)cccc1-n1nnn(C)c1=O [C-3] | ≤ 30% | ≤ 30%
CCC(=NN=C(C)c1ccc2scnc2c1)OCc1c(C)cccc1-n1nnn(C)c1=O [D-3] | – | ≤ 30%
CCC(=NN=C1CCS(=O)(=O)c2ccccc21)OCc1c(C)cccc1-n1nnn(C)c1=O [E-19] | ≤ 30% | ≤ 30%
CSC(=Nc1ccc(F)cc1)SCc1c(C)cccc1-n1nnn(C)c1=O [4-6] | ≤ 30% | –
CC#CCON=C(C)C(C)=NN=C(CC)OCc1c(C)cccc1-n1nnn(C)c1=O [C-6] | ≤ 30% | –
CCC(=NN=C1COc2ccccc21)OCc1c(C)cccc1-n1nnn(C)c1=O [E-10] | ≤ 30% | –
CCC(=NN=C1CCOc2c(OC)cccc21)OCc1c(C)cccc1-n1nnn(C)c1=O [E-20] | ≤ 30% | ≤ 30%
CSC(=Nc1ccc(Cl)cc1)SCc1c(C)cccc1-n1nnn(C)c1=O [4-9] | ≤ 30% | ≤ 30%
CCC(=NN=C1CCOc2c(F)cccc21)OCc1c(C)cccc1-n1nnn(C)c1=O [E-15] | – | ≤ 30%
CSC(=NCCc1ccccc1)SCc1c(C)cccc1-n1nnn(C)c1=O [3-20] | ≤ 30% | ≤ 30%
C#CCON=C(C)C(C)=NN=C(CC)OCc1c(C)cccc1-n1nnn(C)c1=O [C-5] | ≤ 30% | ≤ 30%
CCC(=NN=C(C)C(C)=NO)OCc1c(C)cccc1-n1nnn(C)c1=O [B-1] | ≤ 30% | ≤ 30%
CCC(=NN=C(C)c1ccn(CC)n1)OCc1c(C)cccc1-n1nnn(C)c1=O [D-23] | ≤ 30% | –
CCC(=NN=C1CC[S+]([O-])c2ccccc21)OCc1c(C)cccc1-n1nnn(C)c1=O (stereo not shown) [E-29] | ≤ 30% | ≤ 30%

SMILES | lesion area compared to the lesion area in an untreated rice (200 ppm foliar spray) | lesion area compared to the lesion area in an untreated rice (500 ppm foliar spray)
CCC(=NN=C(C)c1cnn(C)c1)OCc1c(C)cccc1-n1nnn(C)c1=O [1-9] | ≤ 30% | –
CCC(=NN=C1CCCc2ccccc21)OCc1c(C)cccc1-n1nnn(C)c1=O [E-25] | ≤ 30% | ≤ 30%
CCC(=NN=C1CCOc2cc(F)cc(F)c21)OCc1c(C)cccc1-n1nnn(C)c1=O [E-24] | ≤ 30% | ≤ 30%
CCC(=NN=C(C)c1ccc2c(c1)CCO2)OCc1c(C)cccc1-n1nnn(C)c1=O [D-2] | ≤ 30% | –
CCC(=NN=C1CCc2ccc(F)cc21)OCc1c(C)cccc1-n1nnn(C)c1=O [E-4] | ≤ 30% | –
CCC(=NN=C1CCOc2cc(F)ccc21)OCc1c(C)cccc1-n1nnn(C)c1=O [E-16] | ≤ 30% | ≤ 30%
CCC(=NN=C(C)c1cn(C)c2ncccc12)OCc1c(C)cccc1-n1nnn(C)c1=O [D-20] | ≤ 30% | ≤ 30%
CCSC(=NCCc1ccccc1)SCc1c(C)cccc1-n1nnn(C)c1=O [3-1] | ≤ 30% | –
COc1ccc(N=C(SC)SCc2c(C)cccc2-n2nnn(C)c2=O)cc1OC [4-11] | ≤ 30% | –
CSC(=NC(C)(C)C)SCc1c(C)cccc1-n1nnn(C)c1=O [3-17] | – | ≤ 30%
C=CCON=C(C)C(C)=NN=C(CC)OCc1c(C)cccc1-n1nnn(C)c1=O [C-2] | ≤ 30% | ≤ 30%
CCC(=NN=C(C)c1ccc2c(c1)OCO2)OCc1c(C)cccc1-n1nnn(C)c1=O [D-8] | ≤ 30% | ≤ 30%
CCC(=NN=C1CCc2cccc(F)c21)OCc1c(C)cccc1-n1nnn(C)c1=O [E-5] | ≤ 30% | ≤ 30%
CCC(=NN=C(C)c1cnccn1)OCc1c(C)cccc1-n1nnn(C)c1=O [1-4] | ≤ 30% | ≤ 30%
CCC(=NN=C1CCc2c(OC)cccc21)OCc1c(C)cccc1-n1nnn(C)c1=O [E-6] | ≤ 30% | ≤ 30%
CCC(=NN=C(C)c1ccc2c(c1)CCC2)OCc1c(C)cccc1-n1nnn(C)c1=O [D-11] | ≤ 30% | –
CCC(=NN=C1CCc2cc(OC)ccc21)OCc1c(C)cccc1-n1nnn(C)c1=O [E-7] | ≤ 30% | –
